Data: patent publication US9879034B2, “Near-infrared absorption composition, cured film, near-infrared cut filter, solid-state imaging device, infrared sensor, and compound” (FUJIFILM Corporation, priority 2015, dated 2018)
Some results were stated once for a whole list of compounds, not compound by compound.

Test: Solubility of compound to solvent at 25° C.
Type: physicochemical
Conditions: cyclohexanone, PGMEA, toluene
Protocol: The solubility of each compound to each solvent (cyclohexanone, propylene glycol monomethyl ether acetate (PGMEA), and toluene) at 25° C. was evaluated based on the following standards.
A: The solubility of the compound to the solvent at 25° C. is 2 mass % or greater.

Structure (SMILES) | solubility of the compound to each solvent (in words)
CCCCCCCCCC(CCCCCCCCC)Oc1ccc(B2N=c3/c(=C4\C(=O)C(c5ccc6cccc7c6c5NB(c5ccc(OC(CCCCCCCCC)CCCCCCCCC)cc5)N7)=C4O)ccc4cccc(c34)N2)cc1 [SQ-4] | excellent solubility to each solvent
CCCCCCCCCC(CCCCCCCCC)B1N=c2/c(=C3\C(=O)C(c4ccc5cccc6c5c4NB(C(CCCCCCCCC)CCCCCCCCC)N6)=C3O)ccc3cccc(c23)N1 [SQ-7] | excellent solubility to each solvent
CCCCCCCCCCOc1ccccc1B1N=c2/c(=C3\C(=O)C(c4ccc5cccc6c5c4NB(c4ccccc4OCCCCCCCCCC)N6)=C3O)ccc3cccc(c23)N1 [SQ-6] | excellent solubility to each solvent
COCCOCCOCCOc1ccc(B2N=c3/c(=C4\C(=O)C(c5ccc6cccc7c6c5NB(c5ccc(OCCOCCOCCOC)cc5)N7)=C4O)ccc4cccc(c34)N2)cc1 [SQ-5] | excellent solubility to each solvent
CC(C)CCCC(C)CCc1ccc(B2N=c3/c(=C4\C(=O)C(c5ccc6cccc7c6c5NB(c5ccc(CCC(C)CCCC(C)C)cc5)N7)=C4O)ccc4cccc(c34)N2)cc1 (racemic) [SQ-2] | excellent solubility to each solvent
C=CCCCCCCCCOc1ccccc1B1N=c2/c(=C3\C(=O)C(c4ccc5cccc6c5c4NB(c4ccccc4OCCCCCCCCC=C)N6)=C3O)ccc3cccc(c23)N1 [SQ-11] | excellent solubility to each solvent
